{"source": "paper PMC5874678", "about": "“Bryonolic Acid Blocks Cancer Cell Clonogenicity and Invasiveness through the Inhibition of Fatty Acid: Cholesteryl Ester Formation” (Biomedicines, 2018)", "biological_target": "T1, cholesterol-5,6-epoxide hydrolase (ChEH) (Rattus norvegicus, UniProt Q9JJ46+Q9Z2Z8)", "T1 construct": "from tissue; host or cells: rat liver microsomes", "T1 sequence (Q9JJ46 2-230 limits assumed)": "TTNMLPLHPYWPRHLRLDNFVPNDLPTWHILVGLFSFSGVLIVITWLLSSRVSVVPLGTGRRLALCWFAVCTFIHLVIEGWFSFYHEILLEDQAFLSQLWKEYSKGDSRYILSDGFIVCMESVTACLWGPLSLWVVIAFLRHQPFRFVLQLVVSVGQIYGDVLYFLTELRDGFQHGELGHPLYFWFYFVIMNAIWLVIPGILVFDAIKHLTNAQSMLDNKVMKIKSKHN", "T1 sequence (Q9Z2Z8 1-471)": "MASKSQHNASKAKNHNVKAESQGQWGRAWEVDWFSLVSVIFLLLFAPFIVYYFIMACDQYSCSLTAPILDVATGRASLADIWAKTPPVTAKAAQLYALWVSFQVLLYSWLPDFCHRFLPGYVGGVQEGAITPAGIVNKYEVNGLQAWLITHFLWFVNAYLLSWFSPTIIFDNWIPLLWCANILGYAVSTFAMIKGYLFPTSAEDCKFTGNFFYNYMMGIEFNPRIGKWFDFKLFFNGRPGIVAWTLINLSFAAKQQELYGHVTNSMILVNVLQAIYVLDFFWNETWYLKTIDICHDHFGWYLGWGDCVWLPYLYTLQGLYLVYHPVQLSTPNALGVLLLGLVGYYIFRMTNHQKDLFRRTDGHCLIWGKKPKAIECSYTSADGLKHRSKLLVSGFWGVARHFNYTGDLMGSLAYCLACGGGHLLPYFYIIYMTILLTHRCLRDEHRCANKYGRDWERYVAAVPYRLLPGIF", "assay": "Cholesterol epoxide hydrolase (ChEH) inhibition assay", "assay_type": "biochemical", "data": [{"smiles": "CC/C(=C(\\c1ccccc1)c1ccc(OCCN(C)C)cc1)c1ccccc1", "note": "[tamoxifen]", "values": [{"measurement": "IC50", "result": 123, "unit": "nM"}]}]}
